Measurements reported in PubChem BioAssay AID504784 (Drosophila RNAi Screening Center, 2011).
Assay: 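Search for regulators of lipid droplet storage in oleate-fed fly cells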 (primary screen). Cells: Drosophila Kc167 embryonic cells. Reagent: long dsRNA against Drosophila genes, about 250 ng dsRNA per well. Time to read-out: 4 days. Challenge: cells fed 400 µM oleic acid bound to BSA. Measurement: 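Microscope images give a droplet-to-nucleus area ratio, taken as log and converted to a screen-wide B-score; higher values mean greater lipid storage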. Direction: droplet/nuclear area B-score: higher = more stored lipid (overstorage).
The deposit covers about 17,000 reagents; this is an unselected part of those that have a named target and a result. 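Each column is one replicate's B-score; the combined score over replicates was not deposited, so single values may mislead.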

| gene knocked down | dsRNA | droplet/nuclear area B-score, replicate 1 | droplet/nuclear area B-score, replicate 2 | droplet/nuclear area B-score, replicate 3 |
| --- | --- | --- | --- | --- |
| CG4440 | DRSC02747 | 0.134 | -0.304 | – |
| mrn | DRSC10913 | -0.581 | 0.142 | -0.213 |
| Dh44-R2 | DRSC06141 | -2.41 | -0.153 | – |
| Dh44-R2 | DRSC06281 | -1.16 | 0.555 | – |
| O-fut1 | DRSC06138 | 0.1 | -0.306 | – |
| ND-B17 | DRSC01981 | 0.788 | -0.245 | – |
| CG10907 | DRSC09804 | -0.68 | -0.983 | – |
| soti | DRSC16432 | -0.0788 | 0.879 | – |
| CtsL1 | DRSC05462 | 1.24 | 0.366 | – |
| CtsL1 | DRSC07363 | -0.00606 | -0.519 | – |
| PH4alphaNE2 | DRSC16544 | 1.33 | 0.0673 | – |
| CG9581 | DRSC20695 | -2.57 | -1.82 | -0.382 |
| CG9581 | DRSC22247 | 0.00155 | -0.682 | – |
| CG13950 | DRSC00368 | 0.591 | 0.369 | – |
| PGRP-SB2 | DRSC11092 | 0.129 | -0.00294 | – |
| CG4972 | DRSC02798 | 0.826 | 0.687 | – |
| nAChRalpha1 | DRSC13664 | 1.49 | 0.0544 | – |
| nAChRalpha1 | DRSC13670 | -1.38 | -2.19 | – |
| nAChRalpha1 | DRSC13672 | 0.75 | -1.15 | – |
| nAChRalpha1 | DRSC17008 | 1.63 | 0.29 | – |
| CG3640 | DRSC04399 | 3.22 | 0.0116 | – |
| CG4678 | DRSC19911 | 0.721 | -0.72 | – |
| CG4678 | DRSC19912 | 1.94 | 0.0156 | – |
| amx | DRSC18736 | 0.699 | 0.887 | 1.97 |
| CG7800 | DRSC16315 | 0.998 | -0.00634 | – |
| Nlg1 | DRSC12485 | 2.86 | 0.00839 | – |
| Nlg1 | DRSC12532 | 0.267 | -0.525 | – |
| Nlg1 | DRSC12533 | 0.578 | -0.175 | – |
| Nlg1 | DRSC12539 | -1.97 | 0.0135 | – |
| Pfdn2 | DRSC10618 | 0.376 | 2.4 | – |
| CRMP | DRSC12073 | -0.93 | 1.34 | – |
| CRMP | DRSC12345 | 0.0381 | -1.09 | – |
| CG32815 | DRSC18177 | -0.25 | -1.45 | – |
| CG13538 | DRSC04180 | 0.395 | 0.802 | – |
| CG42329 | DRSC00373 | 0.0188 | -0.0415 | – |
| CG42329 | DRSC00682 | 0.679 | -0.411 | – |
| Taf3 | DRSC17170 | 3.63 | 2.69 | – |
| CG13110 | DRSC02208 | 0.763 | 0.13 | 0.171 |
| CG31913 | DRSC00892 | 1.28 | 0.102 | – |
| spn-A | DRSC16812 | 0.0172 | -0.67 | – |
| Or67b | DRSC11241 | 0.0955 | -0.415 | – |
| Pop4 | DRSC10955 | -0.186 | -1.41 | – |
| CG34002 | DRSC09512 | 0.143 | 0.917 | – |
| grh | DRSC05680 | -0.194 | 1.94 | – |
| grh | DRSC05683 | -1.32 | 0.0279 | – |
| grh | DRSC07624 | -0.33 | -0.0469 | – |
| grh | DRSC07625 | 1.46 | -0.734 | – |
| CG7236 | DRSC03037 | -1.46 | 1.53 | – |
| plum | DRSC16054 | – | -0.0199 | – |
| ckd | DRSC08418 | -0.505 | -0.165 | – |
| kni | DRSC11891 | -2.49 | 0.243 | – |
| kni | DRSC23093 | -1.11 | 0.111 | – |
| Cad89D | DRSC15022 | 1.23 | -0.000747 | – |
| Gem3 | DRSC11144 | 0.00856 | 0.0212 | – |
| CG15034 | DRSC17966 | -0.925 | -0.978 | – |
| Pp2A-29B | DRSC03400 | 1.53 | 0.0141 | – |

Sorted by “droplet/nuclear area B-score, replicate 2” (ascending): some entries from above.
| gene knocked down | dsRNA | droplet/nuclear area B-score, replicate 1 | droplet/nuclear area B-score, replicate 2 | droplet/nuclear area B-score, replicate 3 |
| --- | --- | --- | --- | --- |
| CG4678 | DRSC19911 | 0.721 | -0.72 | – |
| Nlg1 | DRSC12532 | 0.267 | -0.525 | – |
| Nlg1 | DRSC12533 | 0.578 | -0.175 | – |
| CG7800 | DRSC16315 | 0.998 | -0.00634 | – |
| Nlg1 | DRSC12485 | 2.86 | 0.00839 | – |
| CG3640 | DRSC04399 | 3.22 | 0.0116 | – |
| CG4678 | DRSC19912 | 1.94 | 0.0156 | – |
| amx | DRSC18736 | 0.699 | 0.887 | 1.97 |
